Laboratory results as given in the supplement of paper PMC9578143, “Small-Molecule Ebselen Binds to YTHDF Proteins Interfering with the Recognition of N^6-Methyladenosine-Modified RNAs” (ACS Pharmacology & Translational Science, 2022).
This is one part of the list. Plates or batches differ in their baseline, so values are only roughly comparable.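 Hits were defined as a z-score below −3.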

Target: T1, YTHDF1 YTH domain (aa 365-554) (UniProt Q9BYJ9)
T1 sequence (whole entry): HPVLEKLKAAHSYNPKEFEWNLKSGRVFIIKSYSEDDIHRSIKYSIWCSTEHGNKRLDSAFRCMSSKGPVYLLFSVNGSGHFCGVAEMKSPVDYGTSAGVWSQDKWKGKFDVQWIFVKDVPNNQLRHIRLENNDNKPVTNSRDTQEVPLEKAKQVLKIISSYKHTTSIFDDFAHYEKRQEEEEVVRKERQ
Test: tryptophan fluorescence intensity z-score (mean); higher = higher fluorescence, less quenching (negative = binding / quenching)
Settings: 10 µM

Tryptophan fluorescence intensity z-score, inactive:
COc1cc(-c2coc3cc(O[C@@H]4O[C@H](CO)[C@@H](O)[C@H](O)[C@H]4O)c(OC)c(O)c3c2=O)cc(O)c1OC (plate: M 15-16) 0.118
CC(=O)Oc1cc(OC(C)=O)c2c(c1)O[C@H](c1ccc(OC(C)=O)c(OC(C)=O)c1)[C@H](OC(C)=O)C2 (plate: M 21-22) 0.21
O=C1c2ccccc2C(=O)c2c1ccc(O)c2O (plate: M 15-16) 0.373
CN1CCN(CCCN2c3ccccc3Sc3ccc(Cl)cc32)CC1 (plate: M 5-6) -0.0844
COC(=O)/C=C/C(C)=C\C=C\C(C)=C\C=C\C=C(C)\C=C\C=C(C)\C=C\C(=O)O (plate: M 21-22) -0.143
O=c1oc2ccccc2c(O)c1Cc1c(O)c2ccccc2oc1=O (plate: M 1-2) 0.436
CC(=O)O[C@H]1CC[C@@]2(C)[C@@H](CC[C@@H]3[C@@H]2CC(=O)[C@]2(C)[C@@H]4[C@H](C[C@@H]32)O[C@]2(CC[C@@H](C)CO2)[C@H]4C)C1 (plate: M 13-14) 0.904
CC[C@@H]1OC(OC(c2cnc[nH]2)C(NC(=O)c2nc(C(CC(N)=O)NCC(N)C(N)=O)nc(N)c2C)C(=O)NC(C)C(O)C(C)C(=O)NC(C(=O)NCCc2nc(-c3nc(C(=O)NCCCCN=C(N)N)cs3)cs2)C(C)O)[C@@H](O[C@H]2O[C@H](CO)[C@@H](O)[C@H](OC(N)=O)[C@@H]2O)[C@@H](C)[C@@H]1C (stereo not given in full) [BLEOMYCIN(bleomycinB2shown)] (plate: M 13-14) 0.503
Nc1cc(C(Cl)=C(Cl)Cl)c(S(N)(=O)=O)cc1S(N)(=O)=O (plate: M 9-10) -0.286
COc1c2occc2c(OC)c2c(=O)cc(C)oc12 (plate: M 15-16) 0.01
C1CNCCN1 (plate: M 5-6) 0.0611
NNc1nncc2ccccc12 (plate: M 3-4) -0.46
NCC(O)CC(=O)O (stereo not given) (plate: M 23-24) 0.613
O=C(/C=C/c1ccc(O)c(O)c1)OCCc1ccccc1 (plate: M 21-22) -0.313
C[C@H](CCC(=O)O)[C@H]1CC[C@H]2[C@@H]3[C@H](O)C[C@@H]4C[C@H](O)CC[C@]4(C)[C@H]3CC[C@]12C (plate: M 5-6) -0.0967
CC(NCCC(c1ccccc1)c1ccccc1)c1ccccc1 (stereo not given) (plate: M 23-24) 0.176
Cc1c(N(C)CS(=O)(=O)O)c(=O)n(-c2ccccc2)n1C (plate: M 9-10) -0.166
CN(C)[C@@H]1C(O)=C(C(=O)NCN2CCCC2)C(=O)[C@@]2(O)C(O)=C3C(=O)c4c(O)cccc4[C@@](C)(O)[C@H]3C[C@@H]12 (plate: M 11-12) -1.07
C[C@@H]1O[C@@H](O[C@H]2[C@H](Oc3cc(O)c4c(=O)cc(-c5ccc(O)cc5)oc4c3)O[C@H](CO)[C@@H](O)[C@@H]2O)[C@H](O)[C@H](O)[C@H]1O (plate: M 19-20) -0.102
CCc1cn([C@H]2C[C@H](O)[C@@H](CO)O2)c(=O)[nH]c1=O (plate: M 7-8) 0.407
N[C@H]1C(O)O[C@H](CO)[C@@H](O)[C@@H]1O (stereo not given in full) (plate: M 3-4) 0.0418
COC(=O)C1=CO[C@@H](O[C@@H]2O[C@H](CO)[C@@H](O)[C@H](O)[C@H]2O)[C@@H]2[C@@H](C)[C@@H](O)C[C@H]12 (plate: M 19-20) 0.178
C=C1C[C@H]2[C@@H]3C=C(C)C4=CC(=O)CC[C@]4(C)[C@H]3CC[C@]2(C)[C@@]1(OC(C)=O)C(C)=O (plate: M 11-12) 0.126
NC(C(=O)O)C(O)C(=O)O (stereo not drawn) [d,l-threo-3-HYDROXYASPARTICACID] (plate: M 17-18) 0.216
Cn1nnnc1SCC1=C(C(=O)O)N2C(=O)[C@@H](NC(=O)[C@H](O)c3ccccc3)[C@H]2SC1 (plate: M 7-8) 0.133
CCC[C@H](N[C@@H](C)C(=O)N1[C@H](C(=O)O)C[C@@H]2CCCC[C@@H]21)C(=O)OCC (plate: M 9-10) 0.098
COc1ccc(NS(=O)(=O)c2ccc(N)cc2)nn1 (plate: M 7-8) -0.365
Nc1ccc(C(=O)NCC(=O)O)cc1 (plate: M 7-8) 0.558
CC1(C)OC(=O)NC1=O (plate: M 1-2) 0.482
COc1cc(/C=C/C(=O)O)cc(OC)c1OC (plate: M 17-18) 0.135
Nc1ccc(S(=O)(=O)c2ccc(N)cc2)cc1 (plate: M 1-2) -0.387
OC[C@H]1O[C@@H](Oc2ccc(O)cc2)[C@H](O)[C@@H](O)[C@@H]1O (plate: M 17-18) 0.583
OCCN1CCN(CCCN2c3ccccc3Sc3ccc(Cl)cc32)CC1 (plate: M 9-10) -0.204
CN(C)CCc1c[nH]c2ccc(Cn3cncn3)cc12 (plate: M 9-10) 0.221
CCN1CCN(C(=O)N[C@@H](C(=O)N[C@@H]2C(=O)N3[C@@H]2SC(C)(C)[C@@H]3C(=O)O)c2ccccc2)C(=O)C1=O (plate: M 5-6) 0.306
C/C1=C\CCC(=O)C2CC(C)(C)C2CC1 (stereo not given) (plate: M 21-22) 0.322
CC(=O)Oc1cccc(O)c1 (plate: M 9-10) -0.386
O=C(NCO)c1cccnc1 (plate: M 23-24) 0.253
CO[C@@H]1[C@@H](OC(N)=O)[C@@H](O)[C@H](Oc2ccc3c(O)c(NC(=O)c4ccc(O)c(CC=C(C)C)c4)c(=O)oc3c2C)OC1(C)C (plate: M 3-4) -0.0678
NC(=O)N/N=C/c1ccc([N+](=O)[O-])o1 (plate: M 3-4) -0.257
